PMC10256737

Molecular target: T1, Capping actin protein, gelsolin-like (CAPG) (human (endogenous in THP-1)) (UniProt P40121)
T1 sequence: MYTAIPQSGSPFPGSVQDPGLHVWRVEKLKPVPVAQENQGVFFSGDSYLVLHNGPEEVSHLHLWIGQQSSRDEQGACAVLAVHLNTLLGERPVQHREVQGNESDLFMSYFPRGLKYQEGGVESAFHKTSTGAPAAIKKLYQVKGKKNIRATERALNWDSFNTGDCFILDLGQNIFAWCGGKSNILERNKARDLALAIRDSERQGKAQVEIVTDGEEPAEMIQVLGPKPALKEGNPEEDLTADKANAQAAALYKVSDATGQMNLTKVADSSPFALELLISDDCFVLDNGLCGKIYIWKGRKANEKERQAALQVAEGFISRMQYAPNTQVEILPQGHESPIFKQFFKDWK
Test: affinity purification with mass spectrometry; endogenous CAPG precipitated from pre-cleared THP-1 nuclear extracts with CAPG antibody (ab181092) on Protein G agarose, IgG control; IP DNP buffer (20 mM HEPES pH 7.9, 100 mM KCl, 0.02% NP-40), 5 h at 4 °C; whole lane LC-MS/MS; hits FC > 2 over IgG

B1: ZFP91 (protein, UniProt Q96JP5 1-570)
chain: MPGETEEPRPPEQQDQEGGEAAKAAPEEPQQRPPEAVAAAPAGTTSSRVLRGGRDRGRAAAAAAAAAVSRRRKAEYPRRRRSSPSARPPDVPGQQPQAAKSPSPVQGKKSPRLLCIEKVTTDKDPKEEKEEEDDSALPQEVSIAASRPSRGWRSSRTSVSRHRDTENTRSSRSKTGSLQLICKSEPNTDQLDYDVGEEHQSPGGISSEEEEEEEEEMLISEEEIPFKDDPRDETYKPHLERETPKPRRKSGKVKEEKEKKEIKVEVEVEVKEEENEIREDEEPPRKRGRRRKDDKSPRLPKRRKKPPIQYVRCEMEGCGTVLAHPRYLQHHIKYQHLLKKKYVCPHPSCGRLFRLQKQLLRHAKHHTDQRDYICEYCARAFKSSHNLAVHRMIHTGEKPLQCEICGFTCRQKASLNWHMKKHDADSFYQFSCNICGKKFEKKDSVVAHKAKSHPEVLIAEALAANAGALITSTDILGTNPESLTQPSDGQGLPLLPEPLGNSTSGECLLLEAEGMSKSYCSGTERVSLMADGKIFVGSGSSGGTEGLVMNSDILGATTEVLIEDSDSAGP
Q: Which binding does the source give for B1 here?
A: binds

No constants are given. Whether binding was seen depends on the method and setting. Binding seen in cells or lysates may run through a third protein. Here binding means that the protein was enriched with, or labelled near, the bait; the list need not be complete.
